According to PubChem BioAssay AID1347076 (National Center for Advancing Translational Sciences (NCATS), 2019):
In all, about 400,000 compounds went through this assay and about 13,000 (3.2%) were called active. The inconclusive results got no clear call from the source; some entries with a clear call stand among them for comparison. Calls come from the whole dose curve; as a rule, active = well fitted cell-killing curve with a large enough effect; inconclusive = small, poorly fitted or top-dose-only effect, or effect the other way; inactive = flat fitted curve, though single readings scatter. Where the call is inconclusive, the potency comes from a doubtful curve fit.

assay: qHTS assay for MDR1-selective chemotherapeutics: Primary screen using the drug-selected MDR subline cells KB-V1; conditions: KB-V1 MDR cells viability, CellTiter-Glo, 72 h; activity change, negative = cytotoxicity: at 46.1 µM (top of the series); note: nearly all actives have a fitted effect of over 60% in size
Summary of the method: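 Readout: CellTiter-Glo luminescence, 10 min after addition. Cells: KB-V1 MDR subline, 72 h at 37 degrees C with compound. Analysis: corrected, normalized data fitted to concentration-effect curves.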
% is set by controls: 0 for no effect and ±100 for the full control effect; potency is the fitted concentration of half-maximal effect.

Row | SMILES | Potency | activity change, negative = cytotoxicity
1 | CCn1c(=O)c2ccccc2n(Cc2cccc(C)c2)c1=O | inconclusive: 8.2 µM [cytotoxic, partial curve] | 
2 | O=[N+]([O-])c1cccc(/C=N/N2CCN(Cc3ccccc3)CC2)c1 |  | inactive: 8.07%
3 | N#Cc1c(NC(=O)c2cccnc2)sc2c1CCC2 | active: 5.8 µM | 
4 | Cc1cc(-c2ccc(C)c(S(=O)(=O)NCCCN3CCN(c4ccccc4)CC3)c2)on1 | inconclusive: 29.1 µM [cytotoxic, single point] | 
5 | Cc1c(CCC(=O)NCCCCCC(=O)O)c(=O)oc2cc3occ(-c4ccccc4)c3cc12 |  | inactive: 25.1%
6 | CSC(=Nc1ccccc1)N=C(SCc1ccccc1)N(C)C | active: 5.8 µM | 
7 | COC(=O)[C@]1(Cc2ccccc2)N[C@H](CN(C)C(=O)c2ccc(F)cc2)[C@@H]2C(=O)N(C)C(=O)[C@@H]21 |  | inactive: 12.8%
8 | COc1cc(OC)c(OC)cc1/C=N/Nc1ncnc2c1[nH]c1ccccc12 | inconclusive: 1.16 µM [cytotoxic, full curve] | 
9 | Cc1nc(NC(=O)/C=C/c2ccccc2)n[nH]1 | inconclusive: 29.1 µM [cytotoxic, single point] | 
10 | Cc1cccc(NC2=CC(=O)OC(C)C2)c1 (stereo unspecified) | inconclusive: 29.1 µM [rising, single point] | 
11 | Cc1cc2c(cc1S(=O)(=O)CCC(=O)N(C)Cc1ccccc1)OCC(=O)N2 | inactive | 
12 | CCCCn1c(-c2cccs2)nc2nc3ccccc3nc21 | inconclusive: 9.2 µM [cytotoxic, partial curve] | 
13 | O=S(Cc1ccccc1)Cc1ccccc1 |  | inactive: 0%
14 | COc1ccc(C(=O)Nc2ccc(N3CCN(c4ccc(OC)cc4)CC3)c(C#N)c2)cc1 | inconclusive: 29.1 µM [rising, single point] | 
15 | CCOc1cccc(C2c3[nH]c4ccccc4c3CCN2C(=O)Cc2cccc(OCC)c2OCC)c1 (stereo unspecified) |  | inactive: -3.71%
16 | Cc1ccc2sc(N(CCCN(C)C)C(=O)c3nc4ccccc4s3)nc2c1C | inconclusive: 29.1 µM [cytotoxic, single point] | 
17 | CC(C)C(=NO)c1ccccc1 | inconclusive: 18.4 µM [rising, partial curve, poor fit] | 
18 | CCC(C)Sc1cccc(-c2nc3cc(C)ccn3c2NCc2ccccc2)c1 (stereo unspecified) | inactive | 
19 | CCN1C(=O)/C(=C/c2cccs2)SC1=Nc1ccc(OC)cc1 |  | inactive: 16.1%
20 | Cc1cc(C)c(NC(=S)N(C)C)cc1C | inconclusive: 18.4 µM [rising, partial curve, poor fit] | 
21 | Cc1cc(/C=C2\SC(=S)N(C)C2=O)c(C)n1-c1cccc(O)c1 | inconclusive: 29.1 µM [cytotoxic, single point] | 

Look-ups from the entries so far.
activity change, negative = cytotoxicity, `COC(=O)[C@]1(Cc2ccccc2)N[C@H](CN(C)C(=O)c2ccc(F)cc2)[C@@H]2C(=O)N(C)C(=O)[C@@H]21` reads inactive: 12.8%
Potency, `CSC(=Nc1ccccc1)N=C(SCc1ccccc1)N(C)C` reads active: 5.8 µM
